The record followed here is article PMC10742089.

Sequences of proteins named here, by UniProt entry; tags and fusion partners are left off.
UniProt Q13200: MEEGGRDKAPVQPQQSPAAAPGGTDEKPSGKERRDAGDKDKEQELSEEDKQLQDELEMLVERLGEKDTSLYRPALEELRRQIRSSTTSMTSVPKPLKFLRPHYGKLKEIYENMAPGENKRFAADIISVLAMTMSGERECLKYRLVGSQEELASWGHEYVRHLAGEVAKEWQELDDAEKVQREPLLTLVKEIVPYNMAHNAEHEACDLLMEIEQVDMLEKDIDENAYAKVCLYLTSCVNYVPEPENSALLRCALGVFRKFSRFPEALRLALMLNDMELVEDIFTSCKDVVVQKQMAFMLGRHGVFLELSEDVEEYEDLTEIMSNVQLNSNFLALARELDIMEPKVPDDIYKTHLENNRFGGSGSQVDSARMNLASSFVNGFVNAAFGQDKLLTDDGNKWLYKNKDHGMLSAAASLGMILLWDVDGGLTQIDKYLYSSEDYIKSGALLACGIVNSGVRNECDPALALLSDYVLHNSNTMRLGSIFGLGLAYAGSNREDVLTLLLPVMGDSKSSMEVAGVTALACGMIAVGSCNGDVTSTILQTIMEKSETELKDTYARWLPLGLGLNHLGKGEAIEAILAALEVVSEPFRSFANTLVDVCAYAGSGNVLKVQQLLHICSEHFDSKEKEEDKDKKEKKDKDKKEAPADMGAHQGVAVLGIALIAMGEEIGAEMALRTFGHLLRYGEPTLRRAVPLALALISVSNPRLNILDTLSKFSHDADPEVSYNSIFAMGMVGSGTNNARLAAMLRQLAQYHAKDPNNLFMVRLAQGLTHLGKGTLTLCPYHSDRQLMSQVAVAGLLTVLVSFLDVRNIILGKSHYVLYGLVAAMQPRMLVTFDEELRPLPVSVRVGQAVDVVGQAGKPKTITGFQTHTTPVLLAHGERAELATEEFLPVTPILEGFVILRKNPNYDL
UniProt Q15008: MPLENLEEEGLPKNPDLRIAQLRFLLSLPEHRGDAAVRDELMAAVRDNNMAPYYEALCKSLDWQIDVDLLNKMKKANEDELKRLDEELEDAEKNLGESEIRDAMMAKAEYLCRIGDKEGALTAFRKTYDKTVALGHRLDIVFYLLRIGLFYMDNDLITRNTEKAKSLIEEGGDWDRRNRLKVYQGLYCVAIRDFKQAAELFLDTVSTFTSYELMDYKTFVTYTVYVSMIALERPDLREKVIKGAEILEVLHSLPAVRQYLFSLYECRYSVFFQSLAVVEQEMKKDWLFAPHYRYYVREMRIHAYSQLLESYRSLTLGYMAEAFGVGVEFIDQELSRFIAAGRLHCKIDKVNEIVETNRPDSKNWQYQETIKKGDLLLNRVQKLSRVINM

No constants are given. Whether binding was seen depends on the method and setting. Binding seen in cells or lysates may run through a third protein. Some binding calls cover weakened binding; strength is not graded here.

The target of assay [1] is GST-iso6 (human) (UniProt Q06787). Put plainly: pull-down; purified GST-iso6 or GST immobilised on glutathione agarose beads, incubated with U2OS total cell extract 1 h at 37 C, 150 mM NaCl, 0.5% NP-40 substitute; Western blot; only the target purified. (In western blotting, separated proteins are transferred to a membrane and probed.)
Assay [2] shares this target. Put plainly: pull-down; as the GST pull-down, with RNase A (10 ug/mL, 15 min at room temperature); only the target purified.
Assay [3] deals with mEGFP-iso6 (FMRP nuclear isoform iso6 fused to GFP) (human) (UniProt Q06787). The assay can be described thus: co-IP; GFP-Trap agarose on lysate of U2OS stably expressing GFP-iso6, 2 h at 4 C, 150 mM NaCl, 0.5% NP-40 substitute; Western blot.

As to AURKB (from UniProt Q96GD4 1-344), in the assay with GST-iso6 (human) [1], the binding entry is “binds”.
With PSMD2 (from UniProt Q13200 1-908), the binding result (with GST-iso6 (human) [2]; in assay [3]; in the assay with GST-iso6 (human) [1]) was “binds” each time.
For PSMD6 (from UniProt Q15008 1-389), the binding entry (in the assay with GST-iso6 (human) [2]; in assay [3]; in the assay with GST-iso6 (human) [1]) was “binds” each time.
